# Results: PubChem BioAssay AID2685 (National Center for Advancing Translational Sciences (NCATS), 2010)
# The list shows a part of the results. These are further read-outs of the screen, such as a control signal, another cell line or another target. No call is given for them. Most of these compounds were active or inconclusive in the main read-out, so they are no random draw. Potencies come from curve fits of mixed quality, noted in brackets.
# Experiment: qHTS Assay for Lipid Storage Modulators in Drosophila S3 Cells;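 for cell number change: cells counted by Cell Tracker Red CMTPX staining in the red channel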
# Conditions: BODIPY lipid droplet fluorescence, 18-24 h; for cell number change: measured here: cell count max response, cells fed with added oleic acid
# Outline: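 Drosophila S3 cells got compounds at several concentrations plus oleic acid (400 uM solution). Laser-scanning cytometry with 488 nm excitation read lipid droplets at 500-530 nm and cells at 575-640 nm. Percent activity was relative to 20 uM Triacsin C.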
# [1] = measured here: cell number channel AC50, cells fed with added oleic acid
# [2] = measured here: lipid fluorescence (Fed channel) AC50, cells fed with added oleic acid
Structure (SMILES),cell number change [%],AC50 [1],AC50 [2]
Cc1cc2nnc(SC3CCCCN(C(=O)c4ccc(F)cc4)C3=O)n2c2ccccc12 (stereo not given),38.8,"10.3 µM [rising, partial curve, poor fit]","1.64 µM [rising, partial curve, poor fit]"
Cc1ccccc1N1C(S)=C(C#N)C(=O)NC1c1ccco1 (stereo not given),-18.9,,"32.6 µM [falling, single point]"
O=C(Nc1ccc(OCC(F)(F)C(F)F)c(C(F)(F)F)c1)c1ccccc1O,-136,"16.4 µM [falling, single point]","23.1 µM [falling, single point]"
COc1ccc(C2CC(=O)C3=C(C2)Nc2ccccc2NC3c2coc3ccccc3c2=O)cc1OC (stereo not given),75.7,"11.6 µM [rising, partial curve, poor fit]","23.1 µM [rising, partial curve, poor fit]"
O=C(CSCc1nc2ccccc2[nH]1)N1CCN(c2cccc(Cl)c2)CC1,-12.9,,
O=C(COc1cccc2cccnc12)Nc1ccccc1N1CCOCC1,,,"0.58 µM [falling, full curve, poor fit]"
CN1CCC(N(C)S(=O)(=O)c2ccc(NC(=O)COc3ccc(Cl)cc3)cc2)CC1,-6.14,,"29.1 µM [falling, single point]"
COc1ccccc1CNC(=O)c1cc(-c2ccncc2)nc2c(Cl)cccc12,-9.34,,
CCCCOc1ccc(Cl)cc1CSc1nnc(CC)n1N,31.5,"20.6 µM [rising, single point]","0.58 µM [rising, single point]"
Cc1c(C(=O)NCCSCc2ccc(Cl)cc2Cl)cccc1[N+](=O)[O-],-3.21,,"29.1 µM [falling, partial curve, poor fit]"
CCOc1ccccc1NC(=O)CSc1ccc(-c2ccco2)nn1,-8.38,,"2.31 µM [rising, partial curve]"
CNC(=O)c1nc(C)c(C2(C)CC(c3cccc([N+](=O)[O-])c3)=NO2)s1 (stereo not given),-3.4,,"6.51 µM [rising, single point]"
COc1ccc(CN(Cc2ccc(C(=O)O)cc2)C(=S)Nc2cccc(C)c2)cc1OC,-20.7,"6.51 µM [falling, partial curve]","5.8 µM [falling, partial curve]"
CCCC(=O)Nc1c(-c2cccs2)c(=O)c2ccccc2n1C,36.9,"7.31 µM [rising, partial curve]","2.31 µM [rising, partial curve, poor fit]"
O=c1c2ccccc2nc(-c2cccs2)n1-c1ccc2ccccc2c1,32,"2.06 µM [rising, partial curve]",
COCCCNC(=O)c1ccc(C(=O)NCCCOC)cc1,1.91,,"6.51 µM [rising, partial curve, poor fit]"
COc1ccc(OC(=O)C2CC(=O)N(c3ccc(C)cc3)C2)cc1 (stereo not given),21,,"0.411 µM [rising, full curve, poor fit]"
C=CCn1cc(C(=O)NCc2ccc3c(c2)OCO3)c(=O)c2cc(S(=O)(=O)N(CC)CC)ccc21,-30.3,"29.1 µM [falling, single point]","0.00461 µM [falling, full curve, poor fit]"
Cc1ccc(C(=O)O)cc1S(=O)(=O)Nc1ccccc1C(=O)NC1CC1,-25,,"29.1 µM [rising, single point]"
Cc1ccc(S(=O)(=O)N(C)c2ccc(OCC(=O)OCC(=O)N(CC#N)c3ccccc3)cc2)cc1,-20.7,,"0.731 µM [falling, full curve, poor fit]"
CCOc1ccc(NC(=O)C2=C(C)C(=O)OC23CCC(C)CC3)cc1 (stereo not given),20.8,,
COc1cc(NC(=O)C(C)Oc2ccccc2)ccc1NC(=O)COc1ccccc1 (stereo not given),-11,,
COc1ccccc1NS(=O)(=O)c1ccc(OC)c([N+](=O)[O-])c1,,"3.66 µM [falling, single point]",
CCc1ccc(-c2cc(C)no2)cc1S(=O)(=O)N1CCOc2ccccc21,,,"20.6 µM [falling, partial curve]"
CCOC(=O)c1ccc(NC(=O)C2CCCO2)cc1 (stereo not given),53.6,"29.1 µM [rising, single point]",
CCCCn1c(N)c(N(CCOC)C(=O)C(C)N2C(=O)c3ccccc3C2=O)c(=O)[nH]c1=O (stereo not given),11.7,,"0.259 µM [falling, full curve, poor fit]"
CN(CC(=O)NCCc1ccc(F)cc1)Cc1cccs1,14.6,"3.26 µM [rising, single point]","4.11 µM [rising, single point]"

Structure (SMILES),cell number change [%],AC50 [1],AC50 [2]
Cc1noc(C)c1CSCC(=O)Nc1cc(S(=O)(=O)N2CCCCC2)ccc1OC(C)C,39.1,"6.51 µM [rising, partial curve, poor fit]",
COc1ccc(-n2c(CN3CCN(c4ccccc4)CC3)nc3ccc([N+](=O)[O-])cc3c2=O)c(OC)c1,28.1,"0.0651 µM [rising, full curve, poor fit]","0.13 µM [rising, full curve]"
COc1ccccc1N1CCN(C2=NS(=O)(=O)c3ccccc32)CC1,,"0.58 µM [rising, single point]",
CCN(CC)c1ccc(C(=O)N/N=C/c2ccc(N3CCOCC3)cc2)cc1,20.9,"5.17 µM [rising, single point]","5.17 µM [rising, single point]"
COc1ccccc1C(=O)COC(=O)CCN=C1NS(=O)(=O)c2ccccc21,16.8,,"23.1 µM [falling, single point]"
CCC(CO)NCc1ccc(OCC(O)c2ccccc2)c(OC)c1 (stereo not given),-29.6,,"6.51 µM [falling, single point]"
COc1cc(C2=NOC(C(=O)Nc3ccc(C)cc3)C2)cc(OC)c1OC (stereo not given),-15.4,,"6.51 µM [falling, full curve]"
CCOc1ccccc1N(CC(=O)N/N=C/c1cc(Br)ccc1OC)S(C)(=O)=O,21.4,"2.59 µM [rising, full curve, poor fit]","3.66 µM [rising, partial curve]"
CCOCCCNC(=O)c1ccccc1SC,-7.67,"0.146 µM [falling, full curve, poor fit]","0.13 µM [falling, partial curve]"
COc1ccc2[nH]cc(CCNC(=O)C3CC(=O)N(c4ccc(Cl)cc4)C3)c2c1 (stereo not given),23.9,,
CCOc1ccc(S(=O)(=O)Nc2cccc(C(=O)NCCCN3CCCC3=O)c2)cc1,3.11,,"0.461 µM [falling, single point]"
Cc1[nH]c2c(C)cccc2c1CN1CCC(CO)(Cc2ccccc2)CC1,-4.56,,"6.51 µM [falling, single point]"
Cc1ccc(S(=O)(=O)Nc2cc(-c3nn(C)c(=O)c4ccccc34)ccc2N2CCOCC2)cc1,-5.22,"0.206 µM [rising, full curve, poor fit]",
CCOc1cccc(NC(=O)Cn2nc(-c3ccc4c(c3)OCCO4)ccc2=O)c1,33.1,"18.4 µM [rising, single point]",
O=C(c1ccc(-n2cnnn2)cc1)N1CCOCC1,-0.165,,"29.1 µM [rising, single point]"
CCOC(=O)CSc1nc2c(sc(=S)n2-c2ccccc2OC)c(=O)n1Cc1ccco1,8.12,"0.0366 µM [rising, full curve]","0.184 µM [rising, partial curve]"
CCCN1C(=O)c2cc(C(=O)NC3CCCC3)ccc2C1O (stereo not given),-29,"0.731 µM [falling, full curve, poor fit]","29.1 µM [falling, single point]"
Clc1ccccc1COc1ccc(/C=N/n2cnnc2)cc1,36.2,"29.1 µM [rising, single point]","29.1 µM [rising, single point]"
CCC(C)(C)NC(=O)C(c1ccncc1)N(C(=O)c1sc(C)nc1C)c1ccc(C)cc1 (stereo not given),-34.2,"13 µM [falling, partial curve]","23.1 µM [falling, single point]"
COc1ccc(NS(=O)(=O)c2cccc(NC(=O)C34CCC(CC3)C4)c2)cc1,21,"6.51 µM [rising, single point]",
COc1cccc(C(=O)NNC(=O)C(=O)Nc2ccc(C)c(Cl)c2)c1,111,"23.1 µM [rising, partial curve]",
Cc1ccc(S(=O)(=O)N2CCCCC2)cc1C(=O)NCC1CCCO1 (stereo not given),,,"29.1 µM [rising, single point]"
CCOc1ccc(N(CC(=O)Nc2c(C)n(C)n(-c3ccccc3)c2=O)S(=O)(=O)c2ccc(F)cc2)cc1,6.65,,"23.1 µM [falling, partial curve]"
C[C@H]1CN=C(Nc2ccccc2)N1CC1CCCCC1,16.2,,"8.2 µM [rising, partial curve]"
Nc1ccc(SC(F)(F)F)cc1C(=O)c1ccccc1,-46.1,"29.1 µM [falling, single point]","23.1 µM [falling, single point]"
COc1ccc(-c2csc3nc(C(C)C)oc(=O)c23)cc1OC,8.82,,
Oc1[nH]c2ccc(Br)cc2c1N=Nc1nn[nH]n1,45.8,"4.11 µM [rising, partial curve, poor fit]","2.91 µM [rising, partial curve, poor fit]"

# Only AC50 [2], for some of the entries so far:
Structure (SMILES) | AC50 [2]
Cc1cc2nnc(SC3CCCCN(C(=O)c4ccc(F)cc4)C3=O)n2c2ccccc12 (stereo not given) | 1.64 µM [rising, partial curve, poor fit]
CCOc1ccccc1NC(=O)CSc1ccc(-c2ccco2)nn1 | 2.31 µM [rising, partial curve]
COCCCNC(=O)c1ccc(C(=O)NCCCOC)cc1 | 6.51 µM [rising, partial curve, poor fit]
COc1ccc(-n2c(CN3CCN(c4ccccc4)CC3)nc3ccc([N+](=O)[O-])cc3c2=O)c(OC)c1 | 0.13 µM [rising, full curve]
